Earlier results, collected in publication PMC6117091, “The C. difficile clnRAB operon initiates adaptations to the host environment in response to LL-37” (PLoS Pathogens, 2018).

Conditions: ref [6]–[8]; cited from earlier work

CC[C@H](C)[C@H](NC(=O)[C@H](CCCCN)NC(=O)[C@H](CCC(=O)O)NC(=O)[C@H](CCCCN)NC(=O)[C@H](CO)NC(=O)[C@H](CCCCN)NC(=O)[C@H](CCCNC(=N)N)NC(=O)[C@H](Cc1ccccc1)NC(=O)[C@H](Cc1ccccc1)NC(=O)[C@H](CC(=O)O)NC(=O)CNC(=O)[C@H](CC(C)C)NC(=O)[C@@H](N)CC(C)C)C(=O)NCC(=O)N[C@@H](CCCCN)C(=O)N[C@@H](CCC(=O)O)C(=O)N[C@@H](Cc1ccccc1)C(=O)N[C@@H](CCCCN)C(=O)N[C@@H](CCCNC(=N)N)C(=O)N[C@H](C(=O)N[C@H](C(=O)N[C@@H](CCC(N)=O)C(=O)N[C@@H](CCCNC(=N)N)C(=O)N[C@H](C(=O)N[C@@H](CCCCN)C(=O)N[C@@H](CC(=O)O)C(=O)N[C@@H](Cc1ccccc1)C(=O)N[C@@H](CC(C)C)C(=O)N[C@@H](CCCNC(=N)N)C(=O)N[C@@H](CC(N)=O)C(=O)N[C@@H](CC(C)C)C(=O)N[C@H](C(=O)N1CCC[C@H]1C(=O)N[C@@H](CCCNC(=N)N)C(=O)N[C@H](C(=O)N[C@@H](CCC(=O)O)C(=O)N[C@@H](CO)C(=O)O)[C@@H](C)O)C(C)C)[C@@H](C)CC)C(C)C)[C@@H](C)CC [LL-37]
level in feces during shigellosis: ~ 5 μg per gram of feces
